{"source": "patent EP0109697B1", "about": "“Rodent bait” (priority 1982, dated 1984)", "key": {"[1]": {"system": "rabbits with a body weight approximately 2,500 g", "type": "in vivo, rabbit", "conditions": "no choice, after 5 days", "protocol": "(§1) Three baits were produced containing the toxicant aldicarb, each at 100 ppm (0.01%) concentration. Aldicarb was presented in the bait either homogeneously dispersed in the manner of a conventional rodenticide, as discrete 0.4 x 0.4 mm particles, (formulation C) or as discrete 1.0 x 1.0 mm particles. The diluent was medium grade oatmeal in all cases. Tests were carried out on mice with a body weight approximately 20 g, rats with a body weight approximately 250 g, and rabbits with a body weight approximately 2,500 g.\n(§2) Baits were offered with no choice of alternative food for five days."}, "[2]": {"system": "rats with a body weight approximately 250 g", "experiment": "No-choice feeding test of three 100 ppm aldicarb presentations (Example 9), rats", "type": "in vivo, rat", "conditions": "after 5 days", "protocol": "as §1, §2"}, "[3]": {"conditions": "100 ppm as 1.0 × 1.0 mm particles"}}, "note": "Like-named read-outs stand apart in the source and are kept apart here.", "data": [{"smiles": "CNC(=O)O/N=C/C(C)(C)SC", "note": "[aldicarb, 2 methyl-2-(methylthio) propionaldehyde 0-(methylcarbamoyl) oxime]", "values": [{"measurement": "Rabbit Take", "setting": "[1]; [3]", "value": 11.4, "unit": "g/day"}, {"measurement": "Rabbit Take", "setting": "[1]; 100 ppm as HOMOGENEOUS", "value": 14.2, "unit": "g/day"}, {"measurement": "Rat Take", "setting": "[2]; 100 ppm as 0.4 × 0.4 mm particles (formulation C)", "value": 3.4, "unit": "g/day"}, {"measurement": "Rat Take", "setting": "[2]; [3]", "value": 9.9, "unit": "g/day"}, {"measurement": "Rat Take", "setting": "[2]; 100 ppm as HOMOGENEOUS", "value": 1.9, "unit": "g/day"}]}]}
